Test [1] deals with p21 (endogenous, GM-CSF macrophages) (human (endogenous in primary monocyte-derived macrophages)) (UniProt P38936). Kind of test: co-IP; endogenous proteins in GM-CSF differentiated primary macrophages; lysate incubated with anti-cyclin D2 or anti-p21 antibody (or rabbit IgG) overnight at 4°C, then Sepharose 1-2 h; immunoblot. In general terms: Immunoblotting shows a protein as a band on a membrane.

The chains behind the UniProt entries cited, without tags or fusion partners.
UniProt P38936: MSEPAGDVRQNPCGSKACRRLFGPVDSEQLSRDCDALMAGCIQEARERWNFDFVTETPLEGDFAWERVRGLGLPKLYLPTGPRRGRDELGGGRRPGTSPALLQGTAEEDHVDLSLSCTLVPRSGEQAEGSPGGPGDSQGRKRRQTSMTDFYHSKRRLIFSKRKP
UniProt P30279: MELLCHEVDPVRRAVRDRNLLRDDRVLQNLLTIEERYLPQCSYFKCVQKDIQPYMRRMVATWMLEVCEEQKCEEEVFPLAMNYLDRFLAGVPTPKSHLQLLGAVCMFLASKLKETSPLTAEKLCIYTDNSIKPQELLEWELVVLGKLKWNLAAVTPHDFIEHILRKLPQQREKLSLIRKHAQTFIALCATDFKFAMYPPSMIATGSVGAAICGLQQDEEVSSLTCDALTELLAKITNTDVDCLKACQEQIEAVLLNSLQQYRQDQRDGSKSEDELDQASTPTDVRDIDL

Another test has as its target Flag-tagged p21 (UniProt P38936). Kind of test: co-IP; HEK293T cells transfected with Flag-p21; lysate (1% Triton X-100 lysis buffer) incubated with anti-Flag M2 agarose overnight at 4°C; immunoblot of endogenous partners.
In test [2] the target is cyclin D2 (endogenous, GM-CSF macrophages) (human (endogenous in primary monocyte-derived macrophages)) (UniProt P30279). Put plainly: co-IP; endogenous proteins in GM-CSF differentiated primary macrophages; lysate incubated with anti-cyclin D2 or anti-p21 antibody (or rabbit IgG) overnight at 4°C, then Sepharose 1-2 h; immunoblot.
For another test, the target named is HA-tagged Cyclin D2 (UniProt P30279). Put plainly: co-IP; HEK293T cells transfected with HA-tagged cyclin D2; lysate (1% Triton X-100 lysis buffer) incubated with anti-HA agarose overnight at 4°C; immunoblot of endogenous partners.

Results are given in words; binding and its absence hold for the method and conditions named. In cells and extracts the contact can be indirect. Some entries that bind do so weakly or less than the wild type.

Regarding “cyclin D2 (endogenous, GM-CSF macrophages) (from UniProt P30279 1-289)”, in test [1], the binding result is listed as “binds”.

With “cyclin D2 (endogenous, HEK293T) (from UniProt P30279 1-289)”, the binding result with Flag-tagged p21 was “binds”.

“p21 (endogenous, GM-CSF macrophages) (from UniProt P38936 1-164)”: the binding entry in test [2] is “binds”.

In the case of “p21 (endogenous, HEK293T) (from UniProt P38936 1-164)”, in the test with HA-tagged Cyclin D2, the binding entry is reported as “binds”.

These data come from article PMC4991798.
